# PubChem BioAssay AID743121 | NCATS – 2013
# Assay: 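Knock-downs that sensitise breast cancer cells to camptothecin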 (primary screen)
# Cell system: MDA-MB-231 cells, a human breast cancer line
# Reagents: single siRNA against human genes, 20 nM siRNA (0.8 pmol per well)
# Timing: 120 h (drug added 48 h after transfection, read 72 h later)
# Conditions: camptothecin 20 nM (about EC30) for 72 h; vehicle 0.1% DMSO in parallel plates
# Detection: 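CellTiter-Glo ATP signal, scaled to control siRNA as percent viability; sensitisation given as log2 of untreated divided by camptothecin-treated viability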
# Reading the numbers: log2 vehicle/camptothecin viability: higher = stronger sensitisation to camptothecin; viability with camptothecin: higher = more viable cells
# Active means: 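Each gene scored by redundant siRNA activity (RSA) over its individual siRNA ratios; a gene is called active at p < 0.001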
# The whole screen tested about 26,000 reagents; shown is a random part of them. Over the whole deposit, 167 (0.63%) are marked active. 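Calls are per gene from RSA p-values that are not deposited; an individual active-marked siRNA can sensitise only weakly.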 A number with no mark means an inactive call. The numbers tell different reagents against one gene apart. Not all columns of the deposit are shown. No sequences are given here.
gene,reagent,log2 vehicle/camptothecin viability,viability with camptothecin (% of control)
CYP4F12,1,-0.0189,95.1
CYP4F12,2,-0.469,72.7
CYP4F12,3,-0.191,91.9
CYP4F12,4,-0.267,97.3
LRRC17,1,-0.303,86.6
LRRC17,2,-0.0685,115
LRRC17,3,-0.101,95.2
LRRC17,4,-0.268,51.3
MAN2C1,1,-0.0157,88.8
MAN2C1,2,-0.134,68.3
MAN2C1,3,-0.142,107
MAN2C1,4,0.0806,79.3
UCP1,1,-0.0928,81.9
UCP1,2,-0.457,87.8
UCP1,3,-0.309,77.8
UCP1,4,-0.272,98
SPOUT1,1,-0.233,90.6
SPOUT1,2,-0.266,68
SPOUT1,3,-0.29,58.5
SPOUT1,4,-0.181,92.2
DOK3,1,-0.0917,29
DOK3,2,0.33,34.8
DOK3,3,-0.286,64.5
DOK3,4,0.436,70.3
NUAK2,1,-0.426,88.5
NUAK2,2,-0.104,67.6
NUAK2,3,0.0436,88.4
NUAK2,4,-0.433,78.3
CDK1,1,-0.331,58.2
CDK1,2,-0.616,95.7
CDK1,3,-0.369,62.8
CGRRF1,1,-0.156,97.6
CGRRF1,2,0.246,73.3
CGRRF1,3,0.408,75.3
CGRRF1,4,-0.225,53.6
LMTK2,1,0.259,41.9
LMTK2,2,-0.335,111
LMTK2,3,-0.113,87.3
LMTK2,4,0.12,76.9
USP8,1,0.114,60.9
USP8,2,-0.227,35.5
USP8,3,0.17,89
GRM4,1,-0.0894,106
GRM4,2,0.167,35
GRM4,3,-0.0679,70.1
GRM4,4,-0.151,78.2
MLLT10,1,-0.629,92.6
MLLT10,2,-0.0694,57.7
MLLT10,3,0.0879,86.2
MLLT10,4,-0.32,67.2
HP,1,0.336,88.5
HP,2,-0.217,49.7
HP,3,0.0116,70
ACBD3,1,0.448,55.9
ACBD3,2,0.013,102
ACBD3,3,0.123,76.2
SOX9,1,0.206,93.7
SOX9,2,-0.0499,85
SOX9,3,-0.548,123
TRIML1,1,-0.138,91.3
TRIML1,2,-0.105,88.7
TRIML1,3,0.272,64.3
TRIML1,4,-0.41,56.5
TRIM49B,1,-0.388,75
TRIM49B,2,-0.0778,115
TRIM49B,3,-0.138,58.6
TRIM49B,4,-0.49,61.2
TBX3,1,-0.361,96
TBX3,2,0.0694,41.4
TBX3,3,-0.371,36.7
TBX3,4,-0.192,109
PSMA5,1,-0.526,42.2
PSMA5,2,-0.412,32.8
PSMA5,3,-0.363,67.2
PSMA5,4,0.742,16.6
TRIM33,1,-0.329,89.3
TRIM33,2,-0.0752,108
TRIM33,3,0.27,60.7
TRIM33,4,0.00648,74.8
TRIM33,5,0.498,38
TBL1XR1,1,-0.236,119
TBL1XR1,2,-0.106,24.7
TBL1XR1,3,-0.764,100
TBL1XR1,4,-0.345,44
TUBA4A,1,0.147,56.1
TUBA4A,2,-0.931,92.2
TUBA4A,3,-0.45,70.3
TUBA4A,4,0.173,54.8

An excerpt from above, showing only “viability with camptothecin (% of control)”:
PSMA5 #1: 42.2
PSMA5 #2: 32.8
PSMA5 #3: 67.2
PSMA5 #4: 16.6
TRIM33 #1: 89.3
TRIM33 #2: 108
TRIM33 #3: 60.7
TRIM33 #4: 74.8
TRIM33 #5: 38
TBL1XR1 #1: 119
TBL1XR1 #2: 24.7
TBL1XR1 #3: 100
